Results are given in words; binding and its absence hold for the method and conditions named. Binding seen in cells or lysates may run through a third protein. Some results given as binding are weak or reduced against the parent protein; the word gives no strength.
B1: Nup153 (protein, UniProt E9Q3G8 1-1462)
chain: MASEAGGIGGGGGGGKIRTRRCHQGPVKPYQQGRPQHQGILSRVTESVKNIVPGWLQRYFNKSENACSCSPDADEVPPWPENREDEHAIYADENTNTDDGRITPDPAGSNTEEPSTTSTASNYPDVLTRPSLHRSHLNFSVLESPALHCQPSTSSAFPIGSSGFSLVKEIKDSTSQHDDDNISTTSGFSSRASEKDIAVSKNTSLPPLWSPEAERSHSLSQHTAISSKKPAFNLSAFGTLSTSLGNSSILKTSQLGDSPFYPGKTTYGGAAAAVRQNKVRSTPYQAPVRRQMKAKQLNAQSYGVTSSTARRILQSLEKMSSPLADAKRIPSAVSSPLNSPLDRSGIDNTVFQAKKEKVDSQYPPVQRLMTPKPVSIATNRTVYFKPSLTPSGDLRKTNQRIDKKNSTVDEKSISRQNREQESGFSYPNFSIPAANGLSSGVGGGGGKMRRERTHFVAPKPPENEEVEAPLLPQISLPISSSSLPTFSFSSPVTSASPSPVSSSQPLPNKVQMTSLGSTGSPVFTFSSPIVKSTQAAVLPPASIGFTFSVPLAKTEFSGSNSSSETVLSSSAQDITAVNSSSYKKRSAPCEDPFTPAKILREGSVLDILKTPGFASPKVDSPALQPTTTSSIVYTRPAISTFSSSGIEYGESLKAGSSWQCDTCLLQNKVTDNKCIACQAAKLPLKETAKQTGTGTPSKSDKPASTSGTGFGDKFKPAIGTWDCDTCLVQNKPEAVKCVACETPKPGTGVKRALTLTVASESPVTASSSTTVTTGTLGFGDKFKRPVGSWECPVCCVCNKAEDNRCVSCTSEKPGLVSASSSSPAPVSLSSGGCLGLDKFKKPEGSWDCEVCLVQNKADSAKCIACESAKPGTKSEFKGFGTSSSLNPAPSAFKFGIPSSSSGLSQTLTSTGNFKFGDQGGFKLGTSSDSGSTNTMNTNFKFSKPTGDFKFGVLSDSKPEEVKNDNKNDNFQFGSSSGLTNPASSAPFQFGVSTLGQQEKKEELPKSSPAGFSFGAGVNNPPNAAIDTTATSENKSGFNFGTLDTKSVSVTPFTYKTTEAKKEDAPATKGGFTFGKVGSSSLPSSSMFVLGRTEEKQQEPVTSTSLVFGKKADSEEPKCQPVFSFGNSEQTKDESSKPTFSFSVAKPSGKESEQLAKATFAFGNQTNTTTDQGAAKPVFSFLNSSSSSSSAPATSSSGGIFGSSTSSSNPPVAAFVFGQASNPVSSSAFGNAAESSTSQSLLFPQESEPATTSSTAPAASPFVFGTGASSNSVSSGFTFGATTTSSSSGSSFVFGTGHSAPSASPAFGANQTPTFGQSQGASQPNPPSFGSISSSTALFSAGSQPVPPPIFGTVSSSSQPPVFGQQPSQSAFGSGTANASSVFQFGSSTTNFNFTNNNPSGVFTFGASPSTPAASAQPSGSGVFSFSQSPASFTVGSNGKNMFSSSGTSVSGRKIKTAVRRKK
B2: Atf2 (protein, UniProt P16951 1-487)
chain: MSDDKPFLCTAPGCGQRFTNEDHLAVHKHKHEMTLKFGPARNDSVIVADQTPTPTRFLKNCEEVGLFNELASPFENEFKKASEDDIKKMPLDLSPLATPIIRSKIEEPSVVETTHQDSPLPHPESTTSDEKEVPLAQTAQPTSAIVRPASLQVPNVLLTSSDSSVIIQQAVPSPTSSTVITQAPSSNRPIVPVPGPFPLLLHLPNGQTMPVAIPASITSSNVHVPAAVPLVRPVTMVPSVPGIPGPSSPQPVQSEAKMRLKAALTQQHPPVTNGDTVKGHGSGLVRTQSEESRPQSLQQPATSTTETPASPAHTTPQTQNTSGRRRRAANEDPDEKRRKFLERNRAAASRCRQKRKVWVQSLEKKAEDLSSLNGQLQSEVTLLRNEVAQLKQLLLAHKDCPVTAMQKKSGYHTADKDDSSEDLSVPSSPHTEAIQHSSVSTSNGVSSTSKAEAVATSVLTQMADQSTEPALSQIVMAPPSQAQPSGS

By UniProt entry, the sequences of proteins in these tests, tags left out.
UniProt Q9DBR0: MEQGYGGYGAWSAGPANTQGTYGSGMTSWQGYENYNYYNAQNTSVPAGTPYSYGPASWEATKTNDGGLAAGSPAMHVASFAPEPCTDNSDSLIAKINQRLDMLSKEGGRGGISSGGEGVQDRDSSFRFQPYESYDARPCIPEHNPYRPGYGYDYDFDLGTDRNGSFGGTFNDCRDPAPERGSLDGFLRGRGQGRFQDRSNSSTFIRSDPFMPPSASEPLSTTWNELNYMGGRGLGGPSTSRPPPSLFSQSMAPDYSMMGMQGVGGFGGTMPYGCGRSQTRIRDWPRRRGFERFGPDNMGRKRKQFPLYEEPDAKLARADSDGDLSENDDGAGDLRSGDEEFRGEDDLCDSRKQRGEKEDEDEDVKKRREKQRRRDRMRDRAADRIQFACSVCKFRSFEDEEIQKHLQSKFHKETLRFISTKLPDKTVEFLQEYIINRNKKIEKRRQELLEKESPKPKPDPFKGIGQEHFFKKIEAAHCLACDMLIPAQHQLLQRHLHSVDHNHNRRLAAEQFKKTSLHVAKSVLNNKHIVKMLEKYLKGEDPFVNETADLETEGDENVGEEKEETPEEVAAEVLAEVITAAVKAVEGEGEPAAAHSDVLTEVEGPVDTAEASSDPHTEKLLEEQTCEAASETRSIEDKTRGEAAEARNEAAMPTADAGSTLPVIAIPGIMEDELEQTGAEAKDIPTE
UniProt Q3TKT4: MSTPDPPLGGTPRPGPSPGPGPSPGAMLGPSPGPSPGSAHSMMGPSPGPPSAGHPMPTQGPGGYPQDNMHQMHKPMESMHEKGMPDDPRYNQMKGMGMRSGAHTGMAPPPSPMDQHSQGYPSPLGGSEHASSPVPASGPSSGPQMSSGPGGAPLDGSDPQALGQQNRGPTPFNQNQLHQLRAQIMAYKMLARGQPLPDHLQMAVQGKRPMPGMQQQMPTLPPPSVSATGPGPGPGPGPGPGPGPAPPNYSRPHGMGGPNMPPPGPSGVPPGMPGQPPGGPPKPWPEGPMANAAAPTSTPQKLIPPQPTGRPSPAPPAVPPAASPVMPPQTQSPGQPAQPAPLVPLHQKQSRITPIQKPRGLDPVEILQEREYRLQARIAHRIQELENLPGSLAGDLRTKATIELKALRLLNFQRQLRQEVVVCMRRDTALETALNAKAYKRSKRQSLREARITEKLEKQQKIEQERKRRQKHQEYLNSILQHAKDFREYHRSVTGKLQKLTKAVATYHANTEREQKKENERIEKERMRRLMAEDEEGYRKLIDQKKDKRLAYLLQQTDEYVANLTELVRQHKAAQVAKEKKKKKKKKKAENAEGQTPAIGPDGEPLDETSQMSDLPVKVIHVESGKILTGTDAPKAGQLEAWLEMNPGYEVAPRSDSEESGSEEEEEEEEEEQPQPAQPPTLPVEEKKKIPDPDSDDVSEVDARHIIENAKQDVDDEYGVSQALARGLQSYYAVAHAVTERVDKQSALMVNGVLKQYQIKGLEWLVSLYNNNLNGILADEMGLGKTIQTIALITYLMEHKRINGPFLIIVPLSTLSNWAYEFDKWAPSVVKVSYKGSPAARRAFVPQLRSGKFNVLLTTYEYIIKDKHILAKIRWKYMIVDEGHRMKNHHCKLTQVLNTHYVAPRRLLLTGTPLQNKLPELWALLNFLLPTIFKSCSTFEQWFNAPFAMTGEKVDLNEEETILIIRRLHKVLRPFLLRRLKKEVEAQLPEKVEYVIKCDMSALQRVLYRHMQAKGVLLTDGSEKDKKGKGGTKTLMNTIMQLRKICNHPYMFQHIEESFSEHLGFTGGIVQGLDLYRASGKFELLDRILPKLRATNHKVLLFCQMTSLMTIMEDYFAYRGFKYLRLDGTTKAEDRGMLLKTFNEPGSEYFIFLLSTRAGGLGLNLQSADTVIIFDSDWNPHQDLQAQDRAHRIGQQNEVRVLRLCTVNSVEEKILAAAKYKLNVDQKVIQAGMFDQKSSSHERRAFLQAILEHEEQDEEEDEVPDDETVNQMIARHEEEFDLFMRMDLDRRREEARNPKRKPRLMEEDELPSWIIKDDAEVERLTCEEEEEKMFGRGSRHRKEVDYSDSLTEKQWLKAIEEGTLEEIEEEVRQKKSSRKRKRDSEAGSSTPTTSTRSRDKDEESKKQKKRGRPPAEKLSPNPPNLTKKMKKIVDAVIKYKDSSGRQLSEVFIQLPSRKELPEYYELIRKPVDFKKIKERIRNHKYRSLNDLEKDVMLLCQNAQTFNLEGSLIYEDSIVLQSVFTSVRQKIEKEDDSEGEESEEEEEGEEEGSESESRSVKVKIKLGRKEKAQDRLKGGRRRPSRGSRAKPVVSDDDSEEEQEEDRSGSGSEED

biological target: T1, Ambra1 (Activating Molecule in Beclin1-Regulated Autophagy) (mouse (endogenous in SCC cells)) (UniProt A2AH22); experiment: co-IP
T1 sequence: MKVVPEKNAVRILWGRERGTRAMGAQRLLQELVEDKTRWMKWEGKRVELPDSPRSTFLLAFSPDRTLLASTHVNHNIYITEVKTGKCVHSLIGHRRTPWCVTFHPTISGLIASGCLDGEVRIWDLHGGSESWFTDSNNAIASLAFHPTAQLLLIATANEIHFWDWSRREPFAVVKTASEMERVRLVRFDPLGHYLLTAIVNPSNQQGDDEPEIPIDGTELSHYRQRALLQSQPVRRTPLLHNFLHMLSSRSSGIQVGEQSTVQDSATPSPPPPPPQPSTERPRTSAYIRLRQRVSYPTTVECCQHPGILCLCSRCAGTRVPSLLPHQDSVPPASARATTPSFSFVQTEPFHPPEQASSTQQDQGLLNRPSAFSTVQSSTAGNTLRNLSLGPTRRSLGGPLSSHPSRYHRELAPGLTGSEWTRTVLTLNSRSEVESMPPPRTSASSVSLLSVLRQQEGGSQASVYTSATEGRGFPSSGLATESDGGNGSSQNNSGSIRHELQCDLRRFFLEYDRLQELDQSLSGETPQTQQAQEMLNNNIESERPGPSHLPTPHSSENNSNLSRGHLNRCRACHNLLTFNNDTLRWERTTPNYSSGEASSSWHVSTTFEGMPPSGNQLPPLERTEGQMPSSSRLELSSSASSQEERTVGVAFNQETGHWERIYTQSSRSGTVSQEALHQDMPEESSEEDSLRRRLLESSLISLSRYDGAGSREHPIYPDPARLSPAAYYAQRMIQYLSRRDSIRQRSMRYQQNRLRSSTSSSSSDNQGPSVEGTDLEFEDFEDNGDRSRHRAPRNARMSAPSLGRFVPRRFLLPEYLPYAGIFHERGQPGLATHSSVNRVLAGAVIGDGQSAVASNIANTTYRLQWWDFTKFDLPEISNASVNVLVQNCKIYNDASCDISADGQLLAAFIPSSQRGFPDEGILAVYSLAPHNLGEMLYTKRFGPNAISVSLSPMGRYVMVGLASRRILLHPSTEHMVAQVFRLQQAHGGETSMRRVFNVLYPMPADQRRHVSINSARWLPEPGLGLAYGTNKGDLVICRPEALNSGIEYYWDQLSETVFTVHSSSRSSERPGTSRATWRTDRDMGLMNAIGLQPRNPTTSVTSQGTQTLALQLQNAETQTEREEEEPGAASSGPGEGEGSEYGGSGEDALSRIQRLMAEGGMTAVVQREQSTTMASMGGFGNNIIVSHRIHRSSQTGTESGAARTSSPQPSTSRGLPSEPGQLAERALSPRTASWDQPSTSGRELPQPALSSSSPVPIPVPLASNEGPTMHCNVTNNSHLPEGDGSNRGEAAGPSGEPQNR

binding, binds:
Akap8 (A kinase anchor protein 8) (from UniProt Q9DBR0 1-687), SMARCA4 (Brg1) (from UniProt Q3TKT4 1-1613), B1, B2
